Some of the results follow. Many values rest on one well or one pass, so single values are uncertain.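 Imaging used 1,536-well plates; nuclei positive for cleaved PARP by antibody were divided by total DNA-stained nuclei to yield the apoptosis fraction. Doses for screening kept most cells viable, and cell lines differ markedly in resting and induced cleaved-PARP levels.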
How the values were obtained:
Test in all cases: cleaved PARP positive nuclei fraction relative to DMSO control; melanoma cells; higher = more apoptosis
Details in all cases: library dose: low library concentration; 72 h
501Mel = system: 501Mel
A101D = system: A101D
A2058 = system: A2058
C32 = system: C32
CBRC008 = system: CBRC008 (line from a melanoma biopsy)
CBRC014 = system: CBRC014 (line from a melanoma biopsy)
CBRC016 = system: CBRC016 (line from a melanoma biopsy)
CBRC017 = system: CBRC017 (line from a melanoma biopsy)

| Structure (SMILES) | cleaved PARP positive nuclei fraction (501Mel) | cleaved PARP positive nuclei fraction (A101D) | cleaved PARP positive nuclei fraction (A2058) | cleaved PARP positive nuclei fraction (C32) | cleaved PARP positive nuclei fraction (CBRC008) | cleaved PARP positive nuclei fraction (CBRC014) | cleaved PARP positive nuclei fraction (CBRC016) | cleaved PARP positive nuclei fraction (CBRC017) |
| --- | --- | --- | --- | --- | --- | --- | --- | --- |
| N.N.[Cl][Pt][Cl] [cisplatin] + c1cc(-c2cnn3cc(-c4ccc(OCCN5CCCCC5)cc4)cnc23)ccn1 [Dorsomorphin] (first compound 1.6 µM, partner dose 0.4 µM) | 42.9% | 22.4% | 77.2% | 161% | 38.3% | 112% | 79.2% | 115% |
| Cn1cnc2c(F)c(Nc3ccc(Br)cc3Cl)c(C(=O)NOCCO)cc21 [selumetinib] + C/C(O)=C(\C#N)C(=O)Nc1cc(Br)ccc1Br [LFM-A13] (first compound 0.015 µM, partner dose 2 µM) | 142% | 48.4% | 49.4% | 42.2% | 116% | 77.7% | 93.8% | 111% |
| Cn1cc(C2=C(c3cn(C4CCN(Cc5ccccn5)CC4)c4ccccc34)C(=O)NC2=O)c2ccccc21 [Enzastaurin] + Oc1nc(-c2ccc(C(F)(F)F)cc2)nc2c1CSCC2 [XAV939] (first compound 0.8 µM, partner dose 2 µM) | 110% | 5.39% | 44.2% | 76.7% | 79.6% | 101% | 37.7% | 93.5% |
| Cn1cc(C2=C(c3cn(C4CCN(Cc5ccccn5)CC4)c4ccccc34)C(=O)NC2=O)c2ccccc21 [Enzastaurin] + O=c1cc(-c2cccc3c2Sc2ccccc2S3)oc(N2CCOCC2)c1 [KU55933] (first compound 0.8 µM, partner dose 1 µM) | 145% | 36.5% | 148% | 78.5% | 157% | 120% | 81.3% | 317% |
| Nc1ccn([C@@H]2O[C@H](CO)[C@@H](O)C2(F)F)c(=O)n1 [gemcitabine] + C/C(O)=C(\C#N)C(=O)Nc1cc(Br)ccc1Br [LFM-A13] (first compound 0.0004 µM, partner dose 2 µM) | 161% | 52% | 98.8% | 69.7% | 250% | 183% | 189% | 97.9% |
| Cn1cc(C2=C(c3cn(C4CCN(Cc5ccccn5)CC4)c4ccccc34)C(=O)NC2=O)c2ccccc21 [Enzastaurin] + COc1cc(N2CCC(N3CCN(C)CC3)CC2)ccc1Nc1ncc(Cl)c(Nc2ccccc2S(=O)(=O)C(C)C)n1 [NVP-TAE684] (first compound 0.8 µM, partner dose 0.08 µM) | 87.8% | 27.2% | 168% | 76.8% | 147% | 101% | 64.8% | 81% |
| Nc1ncn([C@H]2C[C@H](O)[C@@H](CO)O2)c(=O)n1 [decitabine] + O=C(Oc1ccc([N+](=O)[O-])cc1)N1CCC(C(O)(c2ccc3c(c2)OCO3)c2ccc3c(c2)OCO3)CC1 [JZL184] (first compound 0.1 µM, partner dose 1 µM) | 221% | 28.2% | 124% | 161% | 126% | 112% | 62.3% | 107% |
| C[C@]12O[C@H](C[C@]1(O)CO)n1c3ccccc3c3c4c(c5c6ccccc6n2c5c31)CNC4=O [Lestaurtinib] + Cn1cc(/C=C2\C(=O)Nc3cccnc32)c2ccccc21 [GW441756] (first compound 0.004 µM, partner dose 0.4 µM) | 77.7% | 37.7% | 108% | 190% | 147% | 92.9% | 41.3% | 79.2% |
| O=C(/C=C/c1cccnc1)NCCCCC1CCN(C(=O)c2ccccc2)CC1 + O=C(Oc1ccc([N+](=O)[O-])cc1)N1CCC(C(O)(c2ccc3c(c2)OCO3)c2ccc3c(c2)OCO3)CC1 [JZL184] (first compound 0.01 µM, partner dose 1 µM) | 101% | 31.7% | 119% | 66.4% | 3420% | 94.1% | 735% | 357% |
| COc1ccc(C2=N[C@@H](c3ccc(Cl)cc3)[C@@H](c3ccc(Cl)cc3)N2C(=O)N2CCNC(=O)C2)c(OC(C)C)c1 [Nutlin-3] + C/C(O)=C(\C#N)C(=O)Nc1cc(Br)ccc1Br [LFM-A13] (first compound 0.1 µM, partner dose 2 µM) | 69.5% | 18.1% | 88.3% | 20.7% | 167% | 101% | 64.6% | 92.1% |
| CCCS(=O)(=O)Nc1ccc(F)c(C(=O)c2c[nH]c3ncc(Cl)cc23)c1F + Cc1cc(SCc2sc(-c3ccc(C(F)(F)F)c(F)c3)nc2C)ccc1OCC(=O)O [GW0742] (first compound 0.08 µM, partner dose 2 µM) | 75% | 30.4% | 46.2% | 55.5% | 362% | 113% | 69.9% | 119% |

At a glance, part of the list above.

| Structure (SMILES) | cleaved PARP positive nuclei fraction (501Mel) | cleaved PARP positive nuclei fraction (A101D) | cleaved PARP positive nuclei fraction (A2058) | cleaved PARP positive nuclei fraction (C32) | cleaved PARP positive nuclei fraction (CBRC008) | cleaved PARP positive nuclei fraction (CBRC014) | cleaved PARP positive nuclei fraction (CBRC016) | cleaved PARP positive nuclei fraction (CBRC017) |
| --- | --- | --- | --- | --- | --- | --- | --- | --- |
| N.N.[Cl][Pt][Cl] [cisplatin] + c1cc(-c2cnn3cc(-c4ccc(OCCN5CCCCC5)cc4)cnc23)ccn1 [Dorsomorphin] (first compound 1.6 µM, partner dose 0.4 µM) | 42.9% | 22.4% | 77.2% | 161% | 38.3% | 112% | 79.2% | 115% |
| Cn1cnc2c(F)c(Nc3ccc(Br)cc3Cl)c(C(=O)NOCCO)cc21 [selumetinib] + C/C(O)=C(\C#N)C(=O)Nc1cc(Br)ccc1Br [LFM-A13] (first compound 0.015 µM, partner dose 2 µM) | 142% | 48.4% | 49.4% | 42.2% | 116% | 77.7% | 93.8% | 111% |
